Results deposited as PubChem BioAssay AID1671195 (Yale University, 2021)

Aim: 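Regulators of LDL receptor activity judged by labelled LDL uptake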 (primary screen)
System: human Huh7 hepatoma cells
Reagent: siRNA pool against human genes, 18 nM
Time to read-out: about 2 to 2.5 days of knockdown, then 8 h LDL uptake
Challenge: DiI-labelled LDL at 30 µg/ml for 8 h, in lipoprotein-deficient serum medium
Read-out: 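Per-cell DiI-LDL intensity by automated imaging; well means scaled to the plate median and given as a robust z-score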
Reading the numbers: robust z-score: higher = more LDL uptake after knockdown
Call rule: 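Active when two or more replicates show a robust z-score above 2 or below -2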
Shown is one part, drawn at random, of about 22,000 deposited reagents. Over the whole deposit, about 1,510 (6.9%) are marked active. 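Active includes knockdowns raising or lowering LDL uptake; positive z-scores mean more uptake, negative mean less.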

robust z-score, replicate 1	robust z-score, replicate 2	robust z-score, replicate 3	Call	target gene
-1.11	-1.78	-1.39	inactive	WFDC3
0.661	0.417	1.38	inactive	NDE1
0.275	0.0582	-0.425	inactive	NOX4P1
0.445	0.145	0.453	inactive	THEMIS
-1.17	-0.904	-1.14	inactive	LOC285721 (retired record)
-0.782	0.274	1.38	inactive	DZANK1
-0.257	0.731	0.767	inactive	TFF1
-0.834	-0.601	-1.07	inactive	SCGB2A2
1.3	1.1	-0.432	inactive	SAMD4B
0.868	0.884	0.408	inactive	NEXN
-0.449	0.813	1.33	inactive	PML
1.73	0.456	1.23	inactive	RAB18
-0.797	0.0295	0.0392	inactive	MOV10L1
0.555	0.29	0.412	inactive	LOC440513 (retired record)
-0.554	-0.127	-0.144	inactive	RPL34P34
-1.54	-0.944	-1.76	inactive	ACSM2B
-0.629	-0.917	-0.978	inactive	ADAM21
4.56	2.7	3.72	active	RNFT2
-0.628	-1.42	-0.891	inactive	YJU2B
1.8	2.68	3.68	active	KIR3DL1
-1.22	-1.15	-1.58	inactive	CD5L
-1.02	-0.734	-0.934	inactive	TDO2
2.48	1.38	1.92	active	TPRN
0.572	0.236	0.303	inactive	GTF2H4
0.0427	0.184	0.193	inactive	DSG4
-0.185	0.0152	0.00481	inactive	ATP5ME
1.89	1.9	2.19	active	SURF4
-0.544	1.05	0.716	inactive	AKR1B1P8
